Test results as given in paper PMC3379983.
Results are given in words; binding and its absence hold for the method and conditions named. In cells and extracts the contact can be indirect. Here binding means that the protein was enriched with, or labelled near, the bait; the list need not be complete. Where a sequence is shown, tags or fusion partners need not be part of it.

Amino acid sequences for entries named in this document (tags omitted).
UniProt Q62940: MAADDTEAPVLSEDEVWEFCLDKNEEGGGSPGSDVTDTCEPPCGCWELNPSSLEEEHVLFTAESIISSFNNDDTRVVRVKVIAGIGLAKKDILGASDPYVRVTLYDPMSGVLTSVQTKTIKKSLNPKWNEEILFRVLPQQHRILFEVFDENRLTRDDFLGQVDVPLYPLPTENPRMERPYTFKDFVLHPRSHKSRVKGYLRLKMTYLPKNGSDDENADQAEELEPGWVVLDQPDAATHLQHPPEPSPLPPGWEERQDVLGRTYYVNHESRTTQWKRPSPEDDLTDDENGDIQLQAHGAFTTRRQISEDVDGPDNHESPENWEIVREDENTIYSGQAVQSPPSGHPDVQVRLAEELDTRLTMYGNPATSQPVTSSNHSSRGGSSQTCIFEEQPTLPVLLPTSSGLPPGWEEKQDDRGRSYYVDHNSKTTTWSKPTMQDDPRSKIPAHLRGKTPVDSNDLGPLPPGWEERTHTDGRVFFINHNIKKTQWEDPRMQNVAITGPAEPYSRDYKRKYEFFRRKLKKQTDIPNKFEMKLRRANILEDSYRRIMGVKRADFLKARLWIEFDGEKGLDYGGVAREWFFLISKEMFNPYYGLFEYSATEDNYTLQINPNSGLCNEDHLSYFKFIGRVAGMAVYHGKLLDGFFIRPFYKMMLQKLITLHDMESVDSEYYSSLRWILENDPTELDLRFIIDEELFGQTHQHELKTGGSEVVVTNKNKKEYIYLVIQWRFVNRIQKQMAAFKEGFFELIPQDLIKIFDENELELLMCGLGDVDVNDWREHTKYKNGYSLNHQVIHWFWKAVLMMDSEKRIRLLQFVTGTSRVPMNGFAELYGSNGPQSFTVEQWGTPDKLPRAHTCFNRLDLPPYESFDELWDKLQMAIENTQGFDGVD

Molecular target: T1, MAK-V-FLAG protein (C-terminally FLAG-tagged mouse MAK-V protein kinase) (mouse) (UniProt O88866)
T1 sequence: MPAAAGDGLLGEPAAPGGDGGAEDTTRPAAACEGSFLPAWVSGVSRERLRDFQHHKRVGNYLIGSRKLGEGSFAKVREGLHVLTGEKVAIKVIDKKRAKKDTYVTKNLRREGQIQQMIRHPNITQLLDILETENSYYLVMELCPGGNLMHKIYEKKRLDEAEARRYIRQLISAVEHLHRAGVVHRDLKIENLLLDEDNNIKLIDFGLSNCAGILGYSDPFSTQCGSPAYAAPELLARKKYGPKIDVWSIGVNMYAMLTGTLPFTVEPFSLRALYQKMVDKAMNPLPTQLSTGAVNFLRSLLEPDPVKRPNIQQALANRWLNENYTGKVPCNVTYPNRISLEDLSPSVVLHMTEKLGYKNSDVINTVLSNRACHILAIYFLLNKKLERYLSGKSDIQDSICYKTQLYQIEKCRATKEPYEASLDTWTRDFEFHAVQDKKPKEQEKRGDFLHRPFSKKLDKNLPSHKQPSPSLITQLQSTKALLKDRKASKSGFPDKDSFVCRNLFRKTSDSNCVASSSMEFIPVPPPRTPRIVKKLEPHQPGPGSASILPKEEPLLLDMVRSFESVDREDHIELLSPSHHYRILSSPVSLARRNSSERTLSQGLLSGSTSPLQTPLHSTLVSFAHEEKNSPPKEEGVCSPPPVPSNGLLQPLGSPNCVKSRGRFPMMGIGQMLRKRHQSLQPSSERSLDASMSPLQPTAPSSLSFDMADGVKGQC
Assay: affinity purification with mass spectrometry; lysates of doxycycline-induced and non-induced PC12TetOn cells on anti-FLAG M2 affinity gel, 4°C, 2 hrs; elution with FLAG peptide; band cut from gel, MALDI-TOF peptide fingerprint

binding: binds
Substance: rat E3 ubiquitin ligase Nedd4 (endogenous in PC12TetOn cells) (from UniProt Q62940 1-887) (enzyme)
